# Experiment: Quenching efficiency of isoniazid and amino acid: fluorescence of DBDY
# Assay type: physicochemical
# Settings: PBS buffer solution pH 7.4, 25° C.; 0.25 M-DBDY and 10 mM amino acid or INH; λex = 320 nm, λem = 410 nm
row,SMILES,"Relative fluorescence quantum yield of DBDY, Φf,rel(DBDY, i)"
1,NCC(=O)O [Glycine],0.96
2,CC[C@H](C)[C@H](N)C(=O)O [Isoleucine],0.96
3,"NNC(=O)c1ccncc1 [Isoniazid, isoniazid, reference compound]",0.25
4,CC(C)C[C@H](N)C(=O)O [Leucine],0.96
5,NCCCC[C@H](N)C(=O)O [Lysine],1.03
6,CSCC[C@H](N)C(=O)O [Methionine],0.90
7,N[C@@H](Cc1ccccc1)C(=O)O [Phenylalanine],0.93
8,N[C@@H](Cc1c[nH]c2ccccc12)C(=O)O [Tryptophan],2.74
9,CC(C)[C@H](N)C(=O)O [Valine],0.99

# Same assay, conditions: PBS buffer solution pH 7.4, 25° C.; 0.25 M-DBDY; tyrosine at 5 mM due to low solubility; λex = 320 nm, λem = 410 nm
row,SMILES,"Relative fluorescence quantum yield of DBDY, Φf,rel(DBDY, i)"
1,N[C@@H](Cc1ccc(O)cc1)C(=O)O [Tyrosine],1.43

# Same assay, conditions: same concentrations; λex=320 nm, λem=410 nm
SMILES,fluorescence intensity of DBDY relative to that of tryptophan,fluorescence intensity of DBDY relative to that of tyrosine
"CC(C)(C)OC(=O)NC(Cc1ccc(O)c(-c2cc(CC(NC(=O)OC(C)(C)C)C(=O)O)ccc2O)c1)C(=O)O (stereo not drawn) [DBDY, N,N′-diBoc-dityrosine, reference compound]","about 4,300 times","about 11,000 times"
